Measured values reported in PubChem BioAssay AID1688 (National Center for Advancing Translational Sciences (NCATS), 2009).
The campaign covered roughly 220,000 compounds. About 2,400 (1.1%) were called active. Inconclusive results, whose numbers are uncertain, are shown with a selection of clear calls. Calls follow the shape of the dose curve; as a rule, active = well fitted inhibition curve with a large enough effect; inconclusive = small, poorly fitted or top-dose-only effect, or effect the other way; inactive = no such curve, though single readings can be large or run the other way. Where the call is inconclusive, the potency comes from a doubtful curve fit.

Test: qHTS Multiplex Assay to Identify Dual Action Probes in a Cell Model of Huntington: Aggregate Formation (GFP); also: nearly all actives have a fitted effect of over 60% in size
Conditions: PC12 HttQ103-GFP aggregates, Acumen cytometry, 40 h; series mostly up to 46.1 µM
Method in brief: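 PC12/HTTQ103-GFP, ecdysone-inducible; teb 100 nM; cpd qHTS titration; GFP aggregates read on laser cytometer, Ex 488/Em 500-530 nm.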
Potency is read from the fitted curve at half-maximal effect.

Structure (SMILES)	Potency
CN1CCN(C(=S)Nc2ccc(S(N)(=O)=O)cc2)CC1	inconclusive: 6.31 µM [activator, single point]
COC(=O)c1ccccc1S(=O)(=O)N(Cc1cc2cc3c(cc2[nH]c1=O)OCO3)C1CCCCC1	inconclusive: 11.2 µM [activator, single point]
CNS(=O)(=O)c1cnccc1N1CCN(c2cccc(Cl)c2)CC1	inconclusive: 3.55 µM [activator, partial curve]
Clc1ccc(/C=C/c2nc3ccccc3[nH]2)c(Cl)c1	inconclusive: 35.5 µM [inhibitor, single point]
Cc1cc(C)c(NC(=O)C[N+](C)(C)CC(O)COc2cccc3ccccc23)c(C)c1 (centres undefined)	inconclusive: 25.1 µM [inhibitor, single point]
O=C(CSc1ncnc2c1nnn2Cc1ccccc1F)N1CCN(c2ccccc2)CC1	inconclusive: 3.55 µM [activator, single point]
Cc1cccc(NC(=S)N(CCCN2CCCC2)Cc2cccn2Cc2ccc(Cl)cc2)c1	inconclusive: 35.5 µM [inhibitor, single point]
COc1cc(/C=N/N2C(=O)CSC2=S)cc(Br)c1O	inactive
COc1cccc(/C=C2\SC(=S)N(CC3CCCO3)C2=O)c1 (centres undefined)	inconclusive: 14.1 µM [activator, single point]
COc1ccccc1-c1nnc(SCC(=O)Nc2nc(-c3ccccc3)cs2)n1C	inconclusive: 15.8 µM [inhibitor, single point]
Cc1sc2ncn3cnnc3c2c1C	inconclusive: 15.8 µM [inhibitor, single point]
CCn1c(O)c2ccc(C(=O)N=NC(=O)c3cccnc3)cc2c1O	inconclusive: 35.5 µM [inhibitor, single point]
N#CCCS(=O)(=O)c1nnnn1-c1ccccc1	inconclusive: 35.5 µM [inhibitor, single point]
COc1ccc(NC(=S)N(CCCN2CCCC2)Cc2cccn2Cc2ccc(Cl)cc2)cc1Cl	inconclusive: 35.5 µM [inhibitor, single point]
Cc1ccc(OCC(=O)N(Cc2ccc(N(C)C)cc2)C2CCS(=O)(=O)C2)cc1 (centres undefined)	inactive
CCc1ccc(OCC(=O)N(C)C2CCS(=O)(=O)C2)cc1 (centres undefined)	inconclusive: 3.16 µM [activator, single point]
CCN(CC)c1ccc(/C=C(/C#N)c2nc3ccc(C)cc3[nH]2)c(OC(C)C)c1	inconclusive: 17.8 µM [inhibitor, single point]
O=C(COC(=O)COc1ccccc1Cc1ccccc1)Nc1cccnc1Cl	inconclusive: 5.62 µM [activator, single point]
CCCOC(=O)c1[nH]c2c(c1C)C(=O)CC(c1cc(OC)c(OC)c(OC)c1)C2 (centres undefined)	inconclusive: 10 µM [inhibitor, partial curve]
Cc1cc([N+](=O)[O-])ccc1NC(=O)Nc1ccccc1F	inconclusive: 22.4 µM [inhibitor, single point]
Cc1ccc2oc(C(Cl)(Cl)Cl)cc(=O)c2c1	inconclusive: 12.6 µM [activator, single point]
Cc1ccc(NC(=S)Nc2ccc(Br)cc2)cc1	inconclusive: 5.62 µM [activator, single point]

Structure (SMILES)	Potency
Cc1cc(OCC(=O)N2CCCC2)cc(C)c1Cl	inactive
Cn1c(=S)ccc2ccccc21	inactive
CN(C)C(=N)c1n[nH]nc1SCc1ccccc1	inconclusive: 3.16 µM [activator, partial curve]
CCSC1(SCC)N=C(N)C2(C#N)C(c3ccccc3)NC(C)=C(C)C12C#N (centres undefined)	inconclusive: 0.224 µM [inhibitor, full curve]
CSc1ccc(C2C(C#N)=C(N)Oc3c2ccc(=O)c2c(C)oc(C)c32)cc1 (centres undefined)	inconclusive: 12.6 µM [activator, single point]
Cc1c(C(=O)OCc2ccccc2)nnn1-c1nonc1N	inconclusive: 35.5 µM [inhibitor, single point]
Cc1ccc(-c2ccc(C(=O)NCc3ccc(Cl)cc3)o2)c2ccccc12	inconclusive: 35.5 µM [activator, single point]
COc1ncnc2c1oc1nc(CC(C)C)c3c(c12)CC(C)(C)OC3	inactive
Cc1ccc(Cl)cc1N1CCN(S(=O)(=O)c2cnc[nH]2)CC1	inconclusive: 0.891 µM [activator, full curve, poor fit]
O=S(=O)(c1cccs1)N1CCN(CC(O)COc2cccc(Br)c2)CC1 (centres undefined)	inconclusive: 11.2 µM [inhibitor, partial curve]
Cc1ccc(NC(=O)C2CC(=O)N(CCc3ccccc3)C2)c(C)c1 (centres undefined)	inactive
c1cncc(-c2nc(N3CCCCCC3)c3ccccc3n2)c1	inactive
Cc1cccc(NC(=O)c2cnc3n(c2=O)CCS3)c1	inconclusive: 3.16 µM [inhibitor, partial curve]
COc1ccc(C(=O)NC(=S)Nc2ccc(N3CCOCC3)c(Cl)c2)cc1[N+](=O)[O-]	inactive
CN1CCN2c3ccccc3Cc3ccccc3C2C1 (centres undefined)	inconclusive: 35.5 µM [inhibitor, single point]
COC(=O)c1ccc(-n2nnnc2SC)cc1	inconclusive: 22.4 µM [activator, single point]
CCOC(=O)C1(CCCc2ccccc2)CCN(C(=O)[C@@H]2C[C@@H](C)NC(=S)N2)CC1	inconclusive: 2.82 µM [activator, single point]
CCOC(=O)N1CC=C2C(C#N)=C(N)C(C#N)(C#N)[C@H](c3cccs3)C2C1 (some centres undefined)	inactive
C=CCNC(=O)c1onc(CSc2cccc3ccccc23)c1C(=O)O	inactive
CC(C)N1C(=O)/C(=C/c2nc3ccccc3c(=O)n2-c2ccccc2)c2ccccc21	inconclusive: 35.5 µM [inhibitor, single point]
Cc1ccc(C2=NN(C(=O)CCl)C(c3cccs3)C2)o1 (centres undefined)	inconclusive: 22.4 µM [inhibitor, single point]
O=c1c2ccccc2[nH]c2ccccc12	inconclusive: 35.5 µM [inhibitor, single point]

Laid out differently: entries from further up.
C=CCNC(=O)c1onc(CSc2cccc3ccccc23)c1C(=O)O
  Potency: inactive
CC(C)N1C(=O)/C(=C/c2nc3ccccc3c(=O)n2-c2ccccc2)c2ccccc21
  Potency: inconclusive: 35.5 µM [inhibitor, single point]
Cc1ccc(C2=NN(C(=O)CCl)C(c3cccs3)C2)o1 (centres undefined)
  Potency: inconclusive: 22.4 µM [inhibitor, single point]
